No constants are given. Whether binding was seen depends on the method and setting. In cells and extracts the contact can be indirect. A yes stands for co-enrichment or nearness to the bait. Other partners may have been found. Sequences can lack the tags named with a protein.
T1: GFP-DDHD2 (UniProt D3ZJ91)
T1 sequence: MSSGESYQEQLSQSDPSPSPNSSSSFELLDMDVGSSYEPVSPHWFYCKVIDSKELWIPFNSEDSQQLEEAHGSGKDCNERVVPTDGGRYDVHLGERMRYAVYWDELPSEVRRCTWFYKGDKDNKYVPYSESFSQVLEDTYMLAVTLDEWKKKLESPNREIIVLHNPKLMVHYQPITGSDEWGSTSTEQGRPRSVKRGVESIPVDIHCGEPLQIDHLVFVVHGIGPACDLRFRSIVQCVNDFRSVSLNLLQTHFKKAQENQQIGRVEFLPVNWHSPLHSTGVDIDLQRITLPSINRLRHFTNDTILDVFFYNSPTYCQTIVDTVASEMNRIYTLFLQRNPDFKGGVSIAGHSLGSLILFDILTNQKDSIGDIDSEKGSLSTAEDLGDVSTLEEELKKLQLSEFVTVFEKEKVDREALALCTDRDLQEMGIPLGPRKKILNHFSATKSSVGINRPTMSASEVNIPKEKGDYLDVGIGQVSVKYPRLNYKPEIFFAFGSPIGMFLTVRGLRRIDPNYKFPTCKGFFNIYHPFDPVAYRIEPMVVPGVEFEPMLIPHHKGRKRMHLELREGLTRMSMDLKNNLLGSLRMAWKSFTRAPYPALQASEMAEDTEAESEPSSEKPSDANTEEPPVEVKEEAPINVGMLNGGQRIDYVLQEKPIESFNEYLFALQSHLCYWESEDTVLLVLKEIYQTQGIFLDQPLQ


Target: T1, GFP-DDHD2
Assay: affinity purification with mass spectrometry

Row | Binder | binding
1 | Nefm (protein, UniProt P12839 1-846) MSYTLDSLGNPSAYRRVPTETRSSFSRVSGSPSSGFRSQSWSRGSPSTVSSSYKRSALAPRLAYSSAMLSSAESSLDFSQSSSLLNGGSGGDYKLSRSNEKEQLQGLNDRFAGYIEKVHYLEQQNKEIEAEIHALRQKQASHAQLGDAYDQEIRELRATLEMVNHEKAQVQLDSDHLEEDIHRLKERFEEEARLRDDTEAAIRAVRKDIEESSMVKVELDKKVQSLQDEVAFLRSNHEEEVADLLAQIQASHITVERKDYLKTDISTALKEIRSQLECHSDQNMHQAEEWFKCRYAKLTEAAEQNKEAIRSAKEEIAEYRRQLQSKSIELESVRGTKESLERQLSDIEERHNHDLSSYQDTIQQLENELRGTKWEMARHLREYQDLLNVKMALDIEIAAYRKLLEGEETRFSTFSGSITGPLYTHRQPSVTISSKIQKTKVEAPKLKVQHKFVEEIIEETKVEDEKSEMEDALTVIAEELAASAKEEKEEAEEKEEEPEVEKSPVKSPEAKEEEEGEKEEEEEGQEEEEEEDEGVKSDQAEEGGSEKEGSSEKDEGEQEEEGETEAEGEGEEAEAKEEKKTEGKVEEMAIKEEIKVEKPEKAKSPVPKSPVEEVKPKPEAKAGKDEQKEEEKVEEKKEVAKESPKEEKVEKKEEKPKDVPDKKKAESPVKEKAVEEMITITKSVKVSLEKDTKEEKPQQQEKVKEKAEEEGGSEEEVGDKSPQESKKEDIAINGEVEGKEEEEQETQEKGSGQEEEKGVVTNGLDVSPAEEKKGEDRSDDKVVVTKKVEKITSEGGDGATKYITKSVTVTQKVEEHEETFEEKLVSTKKVEKVTSHAIVKEVTQGD | binds
2 | Rab3c (protein, UniProt P62824 1-227) MRHEAPMQMASAQDARFGQKDSSDQNFDYMFKLLIIGNSSVGKTSFLFRYADDSFTSAFVSTVGIDFKVKTVFKNEKRIKLQIWDTAGQERYRTITTAYYRGAMGFILMYDITNEESFNAVQDWSTQIKTYSWDNAQVILAGNKCDMEDERVVSTERGQRLGEQLGFEFFETSAKDNINVKQTFERLVDIICDKMSESLETDPAITAAKQSTRLKETPPPPQPNCGC | binds

The next lines start with the values.

Row | binding | Binder
3 | binds | Sec22b (protein, UniProt Q4KM74 1-215) MVLLTMIARVADGLPLAASMQEDEQSGRDLQQYQSQAKQLFRKLNEQSPTRCTLEAGAMTFHYIIEQGVCYLVLCEAAFPKKLAFAYLEDLHSEFDEQHGKKVPTVSRPYSFIEFDTFIQKTKKLYIDSRARRNLGSINTELQDVQRIMVANIEEVLQRGEALSALDSKANNLSSLSKKYRQDAKYLNMRSTYAKLAAVAVFFIMLIVYVRFWWL
4 | binds | Rab5c (protein, UniProt B0BNK1 1-216) MAGRGGAARPNGPAAGNKICQFKLVLLGESAVGKSSLVLRFVKGQFHEYQESTIGAAFLTQTVCLDDTTVKFEIWDTAGQERYHSLAPMYYRGAQAAIVVYDITNTDTFARAKNWVKELQRQASPNIVIALAGNKADLASKRAVEFQEAQAYADDNSLLFMETSAKTAMNVNEIFMAIAKKLPKNEPQNAAGAPGRNRGVDLQESNPASRSQCCSN
5 | binds | Rab10 (protein, UniProt P35281 1-200) MAKKTYDLLFKLLLIGDSGVGKTCVLFRFSDDAFNTTFISTIEIDFKIKTVELQGKKIKLQIWDTAGQERFHTITTSYYRGAMGIMLVYDITNGKSFENISKWLRNIDQHANEDVERMLLRNKCDMDHKRVVPKGKGEQIAREHRIRFFETSAKANINIEKAFLTLPEDILRKTPVKEPNSENVDISSGGGVTGWKSKCC
